No constants are given. Whether binding was seen depends on the method and setting. Binding seen in cells or lysates may run through a third protein. These calls come from enrichment with a bait or labelling near it, and not all partners need be listed.
Target: T1, UCHL3 overexpressed in HUH7 cells (lentivirus) (UniProt P15374)
T1 sequence: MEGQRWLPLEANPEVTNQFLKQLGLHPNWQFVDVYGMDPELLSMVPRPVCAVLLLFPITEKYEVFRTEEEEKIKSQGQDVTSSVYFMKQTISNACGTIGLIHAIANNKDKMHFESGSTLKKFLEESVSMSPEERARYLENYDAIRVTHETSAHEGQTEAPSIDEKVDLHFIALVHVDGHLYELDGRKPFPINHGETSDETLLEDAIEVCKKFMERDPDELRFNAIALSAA
Assay: affinity purification with mass spectrometry; immunoprecipitation with UCHL3 antibody from total protein of HUH7 cells overexpressing UCHL3, IgG as negative control; gel strips digested, LC-MS

Sequences of proteins named here, by UniProt entry; tags and fusion partners are left off.
UniProt P68104: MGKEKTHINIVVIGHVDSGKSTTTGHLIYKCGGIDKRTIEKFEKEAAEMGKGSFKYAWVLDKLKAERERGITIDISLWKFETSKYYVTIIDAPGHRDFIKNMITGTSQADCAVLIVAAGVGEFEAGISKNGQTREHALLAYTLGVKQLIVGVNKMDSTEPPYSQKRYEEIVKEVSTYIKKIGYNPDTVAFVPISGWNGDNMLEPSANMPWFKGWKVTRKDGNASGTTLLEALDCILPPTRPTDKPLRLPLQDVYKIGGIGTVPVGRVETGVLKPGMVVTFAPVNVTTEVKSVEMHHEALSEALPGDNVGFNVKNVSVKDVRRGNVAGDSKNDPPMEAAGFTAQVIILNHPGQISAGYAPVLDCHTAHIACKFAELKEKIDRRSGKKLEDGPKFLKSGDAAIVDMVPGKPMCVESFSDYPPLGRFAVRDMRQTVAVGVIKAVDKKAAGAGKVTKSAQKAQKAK

binding: binds
Substance: Eukaryotic translation elongation factor 1 alpha 1 (EEF1A1), endogenous in HCC cells (from UniProt P68104 1-462)
